This series can be described thus: In vitro microdialysis, recovery rate of CMA 7 microdialysis probe. As to conditions: flow rate 1.0 ul/min, 30 min.
[1] abbreviates: actual concentration 50 ng/mL in aCSF.
Setting [2] is: actual concentration 1000 ng/mL in aCSF.
[3] abbreviates: actual concentration 5000 ng/mL in aCSF.
Where [4] appears, read: actual concentration 8000 ng/mL in aCSF.

As for `NCCCC(=O)O` [GABA, γ-aminobutyric acid], the microdialysate concentration is 2.0 ng/mL (actual concentration 10 ng/mL in aCSF); 15.0 ng/mL under setting [1]; 189.0 ng/mL under setting [2]; 900.0 ng/mL under setting [3]; 1,480.0 ng/mL under setting [4].
Take `N[C@@H](CCC(=O)O)C(=O)O` [Glutamate, glutamate]: the microdialysate concentration by setting is: under setting [1], 1.0 ng/mL; (actual concentration 100 ng/mL in aCSF) 3.9 ng/mL; under setting [2], 50.0 ng/mL; under setting [3], 199.0 ng/mL; under setting [4], 317.0 ng/mL.
